Data: paper PMC8573827, “Zinc protoporphyrin binding to telomerase complexes and inhibition of telomerase activity” (Pharmacology Research & Perspectives, 2021)
No constants are given. Whether binding was seen depends on the method and setting. Some results given as binding are weak or reduced against the parent protein; the word gives no strength.

Chains of the proteins cited; added tags and fusions are not shown.
UniProt O14746: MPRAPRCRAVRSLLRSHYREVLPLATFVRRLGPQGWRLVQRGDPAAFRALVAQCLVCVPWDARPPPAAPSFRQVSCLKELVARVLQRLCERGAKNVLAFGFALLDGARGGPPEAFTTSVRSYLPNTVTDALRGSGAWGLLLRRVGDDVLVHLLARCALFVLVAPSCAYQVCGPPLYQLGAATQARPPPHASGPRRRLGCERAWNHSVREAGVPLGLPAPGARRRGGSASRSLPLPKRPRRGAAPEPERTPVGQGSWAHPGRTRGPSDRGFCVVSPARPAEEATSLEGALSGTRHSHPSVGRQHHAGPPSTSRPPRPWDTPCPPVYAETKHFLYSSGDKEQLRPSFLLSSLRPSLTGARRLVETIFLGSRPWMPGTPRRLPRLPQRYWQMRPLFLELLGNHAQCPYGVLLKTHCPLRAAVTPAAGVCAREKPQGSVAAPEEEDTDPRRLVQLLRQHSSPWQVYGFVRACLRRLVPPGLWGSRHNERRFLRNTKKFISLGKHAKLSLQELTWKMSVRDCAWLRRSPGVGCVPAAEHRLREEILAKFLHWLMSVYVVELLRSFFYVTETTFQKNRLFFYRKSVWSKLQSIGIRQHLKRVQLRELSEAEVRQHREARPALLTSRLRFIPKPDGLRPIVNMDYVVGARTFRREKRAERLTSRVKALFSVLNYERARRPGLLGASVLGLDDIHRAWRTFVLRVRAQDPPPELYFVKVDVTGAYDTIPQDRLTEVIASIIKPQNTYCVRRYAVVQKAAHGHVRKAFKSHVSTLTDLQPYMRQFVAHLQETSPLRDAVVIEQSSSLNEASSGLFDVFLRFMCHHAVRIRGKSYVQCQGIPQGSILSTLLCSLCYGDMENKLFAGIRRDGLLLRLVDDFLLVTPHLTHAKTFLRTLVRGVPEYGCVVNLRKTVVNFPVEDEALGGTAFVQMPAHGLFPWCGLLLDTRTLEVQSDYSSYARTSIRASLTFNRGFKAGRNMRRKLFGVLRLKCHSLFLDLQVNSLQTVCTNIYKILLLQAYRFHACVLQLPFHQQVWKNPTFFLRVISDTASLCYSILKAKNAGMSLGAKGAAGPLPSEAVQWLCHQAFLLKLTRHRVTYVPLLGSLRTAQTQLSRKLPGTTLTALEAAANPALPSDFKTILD

Target: telomerase reverse transcriptase (human (endogenous in Huh7)) (UniProt O14746)
Experiment: native gel or EMSA; Huh7 lysate incubated 1 h at RT with 10 µM ZnPP or vehicle, run on non-denaturing 0.8% agarose gel (0.5x TBE), diffusion-blotted onto nitrocellulose and stained with anti-TERT or anti-dyskerin antibodies

binding: binds
B1: dyskerin (protein, UniProt O60832 1-514)
chain: MADAEVIILPKKHKKKKERKSLPEEDVAEIQHAEEFLIKPESKVAKLDTSQWPLLLKNFDKLNVRTTHYTPLACGSNPLKREIGDYIRTGFINLDKPSNPSSHEVVAWIRRILRVEKTGHSGTLDPKVTGCLIVCIERATRLVKSQQSAGKEYVGIVRLHNAIEGGTQLSRALETLTGALFQRPPLIAAVKRQLRVRTIYESKMIEYDPERRLGIFWVSCEAGTYIRTLCVHLGLLLGVGGQMQELRRVRSGVMSEKDHMVTMHDVLDAQWLYDNHKDESYLRRVVYPLEKLLTSHKRLVMKDSAVNAICYGAKIMLPGVLRYEDGIEVNQEIVVITTKGEAICMAIALMTTAVISTCDHGIVAKIKRVIMERDTYPRKWGLGPKASQKKLMIKQGLLDKHGKPTDSTPATWKQEYVDYSESAKKEVVAEVVKAPQVVAEAAKTAKRKRESESESDETPPAAPQLIKKEKKKSKKDKKAKAGLESGAEPGDGDSDTTKKKKKKKKAKEVELVSE
